Experimental data as given in patent publication US20180050090A1, “COMPOSITIONS AND METHODS FOR SENSITIZING CELLS TO TRAIL-INDUCED APOPTOSIS” (THE JOHNS HOPKINS UNIVERSITY, priority 2008, published 2018).
At least one compound was matched to its structure with a doubt left.

Experiments:
HT-29 cells = assay: Western blotting of apoptosis markers in HT-29 cells; type: cell-based, human; settings: DOX and TRAILPEG with SP600125 20 μM
From the text: (§1) Immunoblots were visualized by an enhanced chemiluminescence method.

DR5 = assay: Western blot of DR5 protein in HT-29 cells; type: cell-based, human; settings: SP600125 20 μM
From the text: as §1

Oc1c2ccccc2c2c3c(cccc13)N=N2 [SP600125]
proteolytic activation of Casp-8, Casp-9 and PARP-1 cleavages (HT-29 cells): suppressed proteolytic activation | effect on DR5 regulation (DR5): had no effect on regulating DR5
